Here are results for 4 molecules from paper PMC8406295, “Highly Basic Clusters in the Herpes Simplex Virus 1 Nuclear Egress Complex Drive Membrane Budding by Inducing Lipid Ordering” (mBio, 2021).

The chains behind the UniProt entries cited, without tags or fusion partners. Where a name states a change or a piece, a line headed by the entry shows the natural chain unless it says otherwise. A line that says so, or that is headed by a name, gives the form on record, which may keep a tag or linker. Residues count along the entry.
GST-tagged HSV-1 UL34 residues 1 to 220 (as in NEC220) (herpes simplex virus 1 (HSV-1)) (P10218, residues 1-220): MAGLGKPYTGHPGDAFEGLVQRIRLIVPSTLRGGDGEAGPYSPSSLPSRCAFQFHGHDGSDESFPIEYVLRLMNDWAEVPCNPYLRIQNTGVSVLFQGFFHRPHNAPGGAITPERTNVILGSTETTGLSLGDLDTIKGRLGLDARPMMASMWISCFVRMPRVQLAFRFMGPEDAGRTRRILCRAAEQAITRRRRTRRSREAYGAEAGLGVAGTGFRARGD
UL34^(174–194) peptide, unlabelled (herpes simplex virus 1 (HSV-1)) (P10218, residues 174-194): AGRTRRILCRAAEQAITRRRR
UniProt P10215: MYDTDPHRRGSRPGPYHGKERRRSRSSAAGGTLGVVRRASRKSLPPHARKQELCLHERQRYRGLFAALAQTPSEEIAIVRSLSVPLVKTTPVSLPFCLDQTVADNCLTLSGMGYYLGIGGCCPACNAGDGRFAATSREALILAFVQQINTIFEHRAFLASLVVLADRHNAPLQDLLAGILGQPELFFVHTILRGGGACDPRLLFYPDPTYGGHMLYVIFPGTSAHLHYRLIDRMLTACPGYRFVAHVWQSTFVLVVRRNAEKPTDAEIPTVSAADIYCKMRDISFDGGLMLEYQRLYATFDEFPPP

In test [1] the target is GST-tagged HSV-1 UL34 residues 1 to 220 (as in NEC220) (herpes simplex virus 1 (HSV-1)) (UniProt P10218). Put plainly: co-purification (Ni-NTA Sepharose, then glutathione Sepharose, then cation exchange); UL31 and UL34 co-expressed in E. coli; lysate in 50 mM HEPES pH 7.5, 500 mM NaCl, 0.5 mM TCEP, 10% glycerol; 4°C.
The target in test [2] is UL34^(174–194) peptide, unlabelled (herpes simplex virus 1 (HSV-1)) (UniProt P10218). Put plainly: condition: only in the absence of SUVs (25 μM each peptide); cross-linking; SM(PEG)6 at 50-fold molar excess, 30 min at room temperature in PBS, without SUVs; 50 μM peptide, or 25 μM each in mixtures; 16% Tris-tricine SDS-PAGE, Coomassie; both purified.
The target is the same in test [3]. Put plainly: cross-linking; SM(PEG)6 at 50-fold molar excess, 30 min at room temperature in PBS, without SUVs; 50 μM peptide, or 25 μM each in mixtures; 16% Tris-tricine SDS-PAGE, Coomassie; both purified.
For test [4] the target is unchanged. Put plainly: cross-linking; SM(PEG)6 at 50-fold molar excess, 30 min at room temperature in PBS, with 1 mM POPC/POPS/POPA 3:1:1 SUVs; 50 μM peptide, or 25 μM each in mixtures; 16% Tris-tricine SDS-PAGE, Coomassie; both purified.
Test [5] concerns the target UL31^(41–50) peptide (herpes simplex virus 1 (HSV-1)). Put plainly: cross-linking; SM(PEG)6 at 50-fold molar excess, 30 min at room temperature in PBS, without SUVs; 50 μM peptide, or 25 μM each in mixtures; 16% Tris-tricine SDS-PAGE, Coomassie; both purified.
The target is the same in test [6]. Put plainly: cross-linking; SM(PEG)6 at 50-fold molar excess, 30 min at room temperature in PBS, with 1 mM POPC/POPS/POPA 3:1:1 SUVs; 50 μM peptide, or 25 μM each in mixtures; 16% Tris-tricine SDS-PAGE, Coomassie; both purified.

Results are given in words; binding and its absence hold for the method and conditions named. Some binding calls cover weakened binding; strength is not graded here.

On to “His6-SUMO-UL31 (HSV-1 UL31, full length, as in NEC220) (from UniProt P10215 1-306)”, for which the binding entry in test [1] is recorded as “binds”.
Consider “UL31^(22–42) peptide (from UniProt P10215 22-42)”, for which, in test [2], the binding result is listed as “no binding”.
Turning to “UL34^(174–194) peptide, unlabelled (from UniProt P10218 174-194)”, the binding entry in test [3] and in test [4] was “no binding (tested: 50 μM peptide)” each time.
Regarding RKSLPPHARK (N-terminally acetylated; C-terminally amidated) [UL31^(41–50) peptide], the binding result in test [5] is recorded as “no binding (tested: 50 μM peptide)”; in test [6], “no binding (tested: 50 μM peptide)”; in test [2], “no binding”.
